According to paper PMC12040169 (PLOS Biology, 2025):
Some of the results follow.

Test system: T1, CTL2-GFP (C. trachomatis L2/434/Bu, GFP-expressing)
T1 construct: L2/434/Bu, GFP-expressing
Design: species or system HeLa; Intracellular C. trachomatis growth in HeLa cells, bulk GFP fluorescence relative to DMSO
Details: bulk GFP, single well; 28.5 h, 10 µM; inhibitor

Structure (SMILES)	% of control remaining
CC(=O)Nc1cccc(-c2cncc(NCc3cccc(Cl)c3)n2)c1 [CBK065236]	152.046%
COc1cccc(C(=O)NCCC(=O)N2CCC3(CC2)CNC(=O)O3)c1 [CBK306803]	136.189%
CN(C)C(=O)c1cccc(-c2nccnc2NCCO)c1 [CBK036582]	114.771%
O=c1[nH]c2ncc(-c3cccc(Br)c3)nc2n1Cc1ccccn1 [CBK065020]	72.2313%
CSCCC(=O)N1CCC2(CCN(C(=O)Cc3c[nH]c4ccccc34)C2)C1 (stereo not shown) [CBK131442]	89.6123%
COc1cc(C(=O)CCN2CCCCC2)cc(OC)c1OC [CBK015639C]	125.163%
CC(=O)Nc1ccc(CNC(=O)c2ccoc2C)cc1 [CBK305010]	136.494%
CC(=O)N1CCC[C@H]2NC(=O)CNC(=O)C3(C/C=C/C[C@H]21)CCN(CC(C)C)CC3 [CBK292088]	139.75%
O=C(Oc1ccc(/C=N/Nc2nc(N3CCOCC3)nc(N3CCOCC3)n2)cc1)c1ccccc1 [CBK262064]	112.285%
N#Cc1ccc(NC(=O)NCC2(N3CCOCC3)CCSC2)cc1 (stereo not shown) [CBK304546]	100.856%
COCC1CCCN(S(=O)(=O)c2cnc3ccsc3c2)C1 (stereo not shown) [CBK306397]	122.558%
Fc1ccccc1-c1nc2cnccn2c1NCc1ccco1 [CBK283681]	144.188%
CNS(=O)(=O)c1cc(C(=O)NCc2ccco2)ccc1OC [CBK270180]	123.798%
Cc1ccc(/C=C/C(=O)O)cc1S(=O)(=O)N(CCO)CCO [CBK264840]	100%
COc1nccnc1OC1CCN(CCCC#N)CC1 [CBK084255]	111.762%
COc1ccccc1CN(CCN(C)C)C(=O)Cc1c(C)[nH]c(=O)[nH]c1=O [CBK286343]	110.717%
Cc1ccccc1C(=O)N1C2CCC1CC(O)(Cn1ccnc1C)C2 (stereo not shown) [CBK282740]	139.375%
O=C(NCC(O)c1ccc2ccccc2c1)c1cnc(-c2ccccc2)c(-c2ccncc2)c1 (stereo not shown) [CBK037438]	124.398%
COc1cc(OC)cc(C(=O)N2CCC3(CC2)CC(=O)c2cc(F)cc(F)c2O3)c1 [CBK168089]	103.43%
O=C(Cc1csc(-c2ccc(Cl)cc2)n1)NCC1CCCN1 (stereo not shown) [CBK160982]	154.457%
Cc1cc(NC(=O)C2CCN(CCOc3ccccc3F)CC2)no1 [CBK305688]	120.745%
Fc1ccc([C@@H]2COC[C@H]2NCc2ccsc2)cc1 [CBK282598]	123.192%

Six entries out of the list, arranged by count of non-hydrogen atoms, smallest number first.
Structure (SMILES)	% of control remaining
Fc1ccc([C@@H]2COC[C@H]2NCc2ccsc2)cc1 [CBK282598]	123.192%
CC(=O)Nc1ccc(CNC(=O)c2ccoc2C)cc1 [CBK305010]	136.494%
CN(C)C(=O)c1cccc(-c2nccnc2NCCO)c1 [CBK036582]	114.771%
O=c1[nH]c2ncc(-c3cccc(Br)c3)nc2n1Cc1ccccn1 [CBK065020]	72.2313%
Cc1ccccc1C(=O)N1C2CCC1CC(O)(Cn1ccnc1C)C2 (stereo not shown) [CBK282740]	139.375%
O=C(Oc1ccc(/C=N/Nc2nc(N3CCOCC3)nc(N3CCOCC3)n2)cc1)c1ccccc1 [CBK262064]	112.285%
